Measured values from the supplement of paper PMC10849652.
This is one part of the list. Residues, ends and D or L forms follow the SMILES beside them. *: point of attachment. Cbz = O=C(OCc1ccccc1)*

By UniProt entry, the sequences of proteins in these tests, tags left out. Where a name states a change or a piece, a line headed by the entry shows the natural chain unless it says otherwise.
UniProt Q13296: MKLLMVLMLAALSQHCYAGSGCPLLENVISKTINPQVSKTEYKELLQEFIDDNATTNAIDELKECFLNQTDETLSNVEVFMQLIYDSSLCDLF
UniProt Q92622: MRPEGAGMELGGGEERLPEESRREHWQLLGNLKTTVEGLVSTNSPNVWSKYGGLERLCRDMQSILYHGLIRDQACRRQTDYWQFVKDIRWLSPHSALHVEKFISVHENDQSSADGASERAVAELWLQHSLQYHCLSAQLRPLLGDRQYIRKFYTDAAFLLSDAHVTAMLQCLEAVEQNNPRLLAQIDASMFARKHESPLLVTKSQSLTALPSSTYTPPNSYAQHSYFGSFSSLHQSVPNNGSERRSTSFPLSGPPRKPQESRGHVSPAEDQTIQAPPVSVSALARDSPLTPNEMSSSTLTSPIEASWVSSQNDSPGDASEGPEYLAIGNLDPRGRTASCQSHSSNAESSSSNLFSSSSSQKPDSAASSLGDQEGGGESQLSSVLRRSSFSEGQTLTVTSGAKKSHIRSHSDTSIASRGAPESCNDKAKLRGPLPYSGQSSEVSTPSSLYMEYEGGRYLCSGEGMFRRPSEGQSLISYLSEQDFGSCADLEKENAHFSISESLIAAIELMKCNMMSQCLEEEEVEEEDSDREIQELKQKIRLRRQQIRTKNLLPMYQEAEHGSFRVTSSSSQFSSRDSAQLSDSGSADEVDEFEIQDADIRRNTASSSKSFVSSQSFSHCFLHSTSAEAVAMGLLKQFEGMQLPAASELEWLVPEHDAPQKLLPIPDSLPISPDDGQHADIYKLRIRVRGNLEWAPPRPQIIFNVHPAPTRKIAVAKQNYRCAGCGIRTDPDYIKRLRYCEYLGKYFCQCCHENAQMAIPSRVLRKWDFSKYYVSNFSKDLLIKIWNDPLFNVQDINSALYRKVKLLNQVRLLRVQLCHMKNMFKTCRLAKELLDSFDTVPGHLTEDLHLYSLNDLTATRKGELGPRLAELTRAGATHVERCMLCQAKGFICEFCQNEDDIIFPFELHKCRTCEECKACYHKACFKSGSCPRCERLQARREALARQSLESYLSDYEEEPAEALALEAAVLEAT
UniProt Q7L3V2: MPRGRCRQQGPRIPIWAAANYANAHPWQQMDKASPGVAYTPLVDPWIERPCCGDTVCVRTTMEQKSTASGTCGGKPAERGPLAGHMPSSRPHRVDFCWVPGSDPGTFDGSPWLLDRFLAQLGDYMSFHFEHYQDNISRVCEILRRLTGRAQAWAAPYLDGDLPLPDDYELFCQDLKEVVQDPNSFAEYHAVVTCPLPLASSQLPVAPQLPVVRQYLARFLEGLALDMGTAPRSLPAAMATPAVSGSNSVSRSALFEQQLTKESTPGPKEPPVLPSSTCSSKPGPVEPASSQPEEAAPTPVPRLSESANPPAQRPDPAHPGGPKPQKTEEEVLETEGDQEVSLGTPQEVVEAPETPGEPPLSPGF
UniProt Q14684: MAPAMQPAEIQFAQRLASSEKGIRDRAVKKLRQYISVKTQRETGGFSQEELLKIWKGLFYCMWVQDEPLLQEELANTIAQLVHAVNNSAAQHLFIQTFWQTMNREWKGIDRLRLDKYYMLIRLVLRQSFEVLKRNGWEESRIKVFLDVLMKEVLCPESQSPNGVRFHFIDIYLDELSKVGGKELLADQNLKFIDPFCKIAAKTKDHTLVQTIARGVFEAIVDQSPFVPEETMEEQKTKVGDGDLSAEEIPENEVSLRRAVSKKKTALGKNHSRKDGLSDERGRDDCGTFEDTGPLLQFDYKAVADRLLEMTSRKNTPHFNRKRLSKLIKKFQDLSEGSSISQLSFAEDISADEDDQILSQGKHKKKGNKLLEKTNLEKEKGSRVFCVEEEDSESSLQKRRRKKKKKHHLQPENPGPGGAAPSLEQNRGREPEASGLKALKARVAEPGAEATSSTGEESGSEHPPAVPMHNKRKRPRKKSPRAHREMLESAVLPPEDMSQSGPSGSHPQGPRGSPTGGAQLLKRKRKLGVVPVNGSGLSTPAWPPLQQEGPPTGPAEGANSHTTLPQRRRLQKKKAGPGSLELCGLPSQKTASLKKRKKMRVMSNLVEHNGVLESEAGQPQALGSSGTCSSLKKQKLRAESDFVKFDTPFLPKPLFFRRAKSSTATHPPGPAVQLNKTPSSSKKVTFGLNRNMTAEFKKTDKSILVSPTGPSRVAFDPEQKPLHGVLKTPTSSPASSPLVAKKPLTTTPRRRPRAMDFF
UniProt Q14160: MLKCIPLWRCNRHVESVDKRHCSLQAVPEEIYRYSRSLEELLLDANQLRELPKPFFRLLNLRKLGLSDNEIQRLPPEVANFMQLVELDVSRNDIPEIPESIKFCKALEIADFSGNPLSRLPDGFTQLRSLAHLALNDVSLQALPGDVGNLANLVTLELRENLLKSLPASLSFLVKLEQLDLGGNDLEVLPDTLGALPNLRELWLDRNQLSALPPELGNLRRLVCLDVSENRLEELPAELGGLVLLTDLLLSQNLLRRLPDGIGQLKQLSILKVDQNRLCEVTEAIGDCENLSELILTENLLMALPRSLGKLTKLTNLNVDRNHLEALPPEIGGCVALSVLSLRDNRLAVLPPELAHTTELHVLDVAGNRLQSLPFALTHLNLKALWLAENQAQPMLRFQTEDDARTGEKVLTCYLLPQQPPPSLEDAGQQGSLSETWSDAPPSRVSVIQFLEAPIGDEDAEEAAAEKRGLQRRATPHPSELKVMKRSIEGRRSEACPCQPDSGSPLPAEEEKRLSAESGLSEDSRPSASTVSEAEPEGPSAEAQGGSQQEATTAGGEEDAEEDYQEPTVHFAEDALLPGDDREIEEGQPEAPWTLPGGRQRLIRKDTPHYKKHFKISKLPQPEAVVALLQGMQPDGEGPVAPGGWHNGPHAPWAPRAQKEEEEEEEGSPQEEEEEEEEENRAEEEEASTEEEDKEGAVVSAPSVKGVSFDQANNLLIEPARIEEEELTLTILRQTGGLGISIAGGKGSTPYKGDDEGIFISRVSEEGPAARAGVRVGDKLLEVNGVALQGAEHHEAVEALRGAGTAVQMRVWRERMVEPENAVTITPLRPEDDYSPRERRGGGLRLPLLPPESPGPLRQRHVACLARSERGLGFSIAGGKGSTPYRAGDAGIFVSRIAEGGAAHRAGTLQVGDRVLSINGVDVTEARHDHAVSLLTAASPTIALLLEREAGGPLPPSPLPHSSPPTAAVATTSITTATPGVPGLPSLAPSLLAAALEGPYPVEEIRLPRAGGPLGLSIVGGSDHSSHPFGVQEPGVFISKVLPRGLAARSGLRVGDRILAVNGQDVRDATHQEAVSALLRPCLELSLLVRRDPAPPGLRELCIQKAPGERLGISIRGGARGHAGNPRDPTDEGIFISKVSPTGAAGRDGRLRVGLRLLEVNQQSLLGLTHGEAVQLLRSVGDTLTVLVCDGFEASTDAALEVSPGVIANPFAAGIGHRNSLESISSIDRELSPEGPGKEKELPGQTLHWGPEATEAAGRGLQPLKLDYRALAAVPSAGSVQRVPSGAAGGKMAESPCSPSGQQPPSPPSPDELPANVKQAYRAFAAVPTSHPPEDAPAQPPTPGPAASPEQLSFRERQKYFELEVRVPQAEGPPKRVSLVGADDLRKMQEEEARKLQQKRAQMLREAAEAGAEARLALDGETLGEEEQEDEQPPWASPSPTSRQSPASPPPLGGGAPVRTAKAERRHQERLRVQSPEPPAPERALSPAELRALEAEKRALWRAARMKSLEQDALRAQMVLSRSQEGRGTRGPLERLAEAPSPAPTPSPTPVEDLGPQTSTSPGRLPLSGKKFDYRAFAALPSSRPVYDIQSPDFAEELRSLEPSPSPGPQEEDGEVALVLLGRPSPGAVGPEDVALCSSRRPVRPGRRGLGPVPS
UniProt O75556: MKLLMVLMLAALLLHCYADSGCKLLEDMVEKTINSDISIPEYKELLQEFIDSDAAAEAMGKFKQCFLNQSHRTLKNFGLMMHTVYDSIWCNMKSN
UniProt P48443: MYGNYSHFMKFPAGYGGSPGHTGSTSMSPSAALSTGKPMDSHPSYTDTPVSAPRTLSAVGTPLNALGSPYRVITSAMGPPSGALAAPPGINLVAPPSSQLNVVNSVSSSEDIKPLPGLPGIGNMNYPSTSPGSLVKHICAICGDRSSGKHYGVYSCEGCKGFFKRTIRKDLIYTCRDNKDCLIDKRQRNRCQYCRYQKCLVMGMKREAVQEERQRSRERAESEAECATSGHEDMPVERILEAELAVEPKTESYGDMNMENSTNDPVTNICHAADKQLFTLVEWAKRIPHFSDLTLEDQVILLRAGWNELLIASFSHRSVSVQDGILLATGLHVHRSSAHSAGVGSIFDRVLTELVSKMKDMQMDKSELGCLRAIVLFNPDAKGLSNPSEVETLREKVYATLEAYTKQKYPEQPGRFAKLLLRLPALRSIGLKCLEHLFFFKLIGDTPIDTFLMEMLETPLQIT
UniProt O95487: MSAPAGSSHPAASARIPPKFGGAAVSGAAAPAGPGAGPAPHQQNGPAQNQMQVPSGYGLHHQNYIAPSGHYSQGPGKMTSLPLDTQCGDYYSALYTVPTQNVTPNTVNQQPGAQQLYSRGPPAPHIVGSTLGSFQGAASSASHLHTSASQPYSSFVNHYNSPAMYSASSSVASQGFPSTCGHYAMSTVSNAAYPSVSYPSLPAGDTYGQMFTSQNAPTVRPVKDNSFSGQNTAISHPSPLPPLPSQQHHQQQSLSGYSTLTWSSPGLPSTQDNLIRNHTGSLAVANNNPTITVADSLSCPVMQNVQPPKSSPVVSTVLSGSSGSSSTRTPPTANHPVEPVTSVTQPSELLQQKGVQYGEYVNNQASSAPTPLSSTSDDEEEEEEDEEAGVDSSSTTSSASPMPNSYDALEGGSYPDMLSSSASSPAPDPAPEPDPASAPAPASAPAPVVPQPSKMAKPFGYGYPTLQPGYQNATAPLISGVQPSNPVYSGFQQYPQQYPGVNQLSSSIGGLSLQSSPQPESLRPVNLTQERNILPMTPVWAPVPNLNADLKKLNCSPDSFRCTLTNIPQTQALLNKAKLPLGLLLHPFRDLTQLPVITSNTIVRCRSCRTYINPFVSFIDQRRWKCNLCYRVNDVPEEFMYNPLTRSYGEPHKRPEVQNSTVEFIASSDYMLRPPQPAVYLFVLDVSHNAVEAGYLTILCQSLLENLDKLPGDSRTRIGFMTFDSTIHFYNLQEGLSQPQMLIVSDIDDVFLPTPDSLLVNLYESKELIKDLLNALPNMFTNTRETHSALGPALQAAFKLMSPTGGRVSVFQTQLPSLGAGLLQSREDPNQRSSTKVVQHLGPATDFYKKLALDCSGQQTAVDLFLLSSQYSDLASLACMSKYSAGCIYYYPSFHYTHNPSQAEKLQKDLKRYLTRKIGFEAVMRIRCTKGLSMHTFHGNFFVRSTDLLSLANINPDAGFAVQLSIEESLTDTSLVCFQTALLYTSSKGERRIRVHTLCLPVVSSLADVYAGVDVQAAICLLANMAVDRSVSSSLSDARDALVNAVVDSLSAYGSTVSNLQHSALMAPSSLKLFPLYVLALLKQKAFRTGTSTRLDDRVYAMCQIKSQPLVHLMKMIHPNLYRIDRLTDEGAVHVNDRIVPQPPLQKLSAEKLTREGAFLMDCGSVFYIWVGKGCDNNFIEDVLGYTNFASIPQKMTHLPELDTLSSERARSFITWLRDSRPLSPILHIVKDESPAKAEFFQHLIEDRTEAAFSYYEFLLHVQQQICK

Legend:
Experiment in all cases: log2 fold change, soluble protein after heating vs DMSO (PISA); higher = thermal stabilisation; K562 cells, 10 uM, 30 min; active = over 0.2 and 3.5 SD of the protein, either way, in both replicates (recomputed)
[1] = compound: C1=CC(=C(C=C1Cl)C2=NC3=NC=CN=C3C(=N2)NC4=CC=NC=C4)F
Outline: (§1)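 Aliquots of K562 cells (2×10^6 cells/mL) treated with 10 μM compound for 30 min were heated for 3 min over 48°C-58°C. After pooling and extraction in PBS with 0.5% NP-40 at 4°C, soluble protein from a 21,000xg, 90 min spin was quantified by TMTpro 16plex LC-MS/MS with channel sums equalised. Thermal stability is expressed against control samples, from duplicates, as a log2 fold change.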

[2] = compound: CC(C)(O)CC(=O)NCCn1ccc2ncnc(Nc3ccc(Oc4cccc(C(F)(F)F)c4)c(Cl)c3)c21
Outline: as §1

[3] = compound: C/C(=N\NC(=O)C1=CC(=CC=C1)S(=O)(=O)N2CCOCC2)/C3=C(C=CC(=C3)Cl)O
Outline: as §1

[4] = compound: C1=CC2=C(C=CC(=C2)/C=C\3/C(=O)NC(=NCC4=CC=CS4)S3)N=C1
Outline: as §1

[5] = compound: C1=CC2=NC=CN=C2C=C1/C=C/3\C(=O)NC(=O)S3
Outline: as §1

[6] = compound: C1=CC=C2C(=C1)C3=NNC4=CC=CC(=C43)C2=O
Outline: as §1

[7] = compound: C1CCN(C1)C(=O)NC2=CC=CC(=C2)NC3=NC=C(C(=N3)NCCC4=CN=CN4)Br
Outline: as §1

[8] = compound: C1CN(CCC1(CC2=CC=C(C=C2)Cl)N)C3=NC=NC4=C3C=CN4
Outline: as §1

IRAK-1-4 Inhibitor I = compound: C1COCCN1CCN2C3=CC=CC=C3N=C2NC(=O)C4=CC(=CC=C4)[N+](=O)[O-] [IRAK-1-4 Inhibitor I]
Outline: as §1

ibrutinib = compound: C=CC(=O)N1CCC[C@@H](n2nc(-c3ccc(Oc4ccccc4)cc3)c3c(N)ncnc32)C1 [ibrutinib]
Outline: as §1

[9] = compound: CC(=O)c1cnc2ccc(-c3cc(Cl)c(O)c(Cl)c3)nc2c1N[C@H]1CC[C@H](CN(C)C)CC1
Outline: as §1

pinometostat = compound: CC(C)N(C[C@H]1O[C@@H](n2cnc3c(N)ncnc32)[C@H](O)[C@@H]1O)[C@H]1C[C@@H](CCc2nc3cc(C(C)(C)C)ccc3[nH]2)C1 [pinometostat]
Outline: as §1

[10] = compound: CC1=C(C(CC(=O)N1)C2=CC=C(C=C2)C(F)(F)F)C(=O)NC3=C(C=C4C(=C3)C=NN4)F
Outline: as §1

[11] = compound: CC1=C(C2=C(C=C1)C(=O)C3=CC=CC=C3N2CCCN)C
Outline: as §1

[12] = compound: C1=CC=C(C=C1)C2=NC(=C(N2)C3=CC=NC=C3)C4=CC(=C(C=C4)Cl)O
Outline: as §1

ralimetinib = compound: CC(C)(C)Cn1c(N)nc2ccc(-c3[nH]c(C(C)(C)C)nc3-c3ccc(F)cc3)nc21 [ralimetinib]
Outline: as §1

[13] = compound: CC(C)C[C@@H](C=O)NC(=O)[C@H](CC(C)C)NC(=O)[C@H](CC(C)C)NC(=O)OCc1ccccc1
Outline: as §1

erlotinib = compound: C#Cc1cccc(Nc2ncnc3cc(OCCOC)c(OCCOC)cc23)c1 [erlotinib]
Outline: as §1

[14] = compound: C1=CC(=CC=C1C2=NC3=C(N2)C=C(C=C3)C(=O)N)OC4=CC=C(C=C4)Cl
Outline: as §1

[15] = compound: CC(C)C1=C2N=C(C=C(N2N=C1)NCC3=CC=CC=C3)NCCCCCCN
Outline: as §1

Measured: log2 fold change

RTN4, A0A0U1RQR6
inactive: [1] -0.105 | [2] 0.076

SCGB2A2 (UniProt Q13296)
inactive: [3] 0.031 | [1] -0.144 | [4] -0.016 | [5] -0.199 | [6] -0.699 | [7] -0.393 | [8] -0.542 | IRAK-1-4 Inhibitor I 0.408 | ibrutinib 0.035 | [9] 0.173 | [2] -0.088 | pinometostat -0.215 | [10] -0.546 | [11] 1

RUBCN (UniProt Q92622)
inactive: [12] 0.122 | ralimetinib 0.097 | [13] 0.119

RTL10 (UniProt Q7L3V2)
inactive: [3] 0.05 | [1] -0.128 | [4] 0.144 | [12] 0.028 | [6] 0.071 | [7] 0.022 | [8] -0.193 | [9] -0.2 | ralimetinib -0.053 | [2] -0.302 | [13] 0.227 | [11] 0.055

RRP1B (UniProt Q14684)
inactive: erlotinib 0.357 | [1] -0.151 | [14] -0.17 | [7] 0.125 | [8] -0.089 | IRAK-1-4 Inhibitor I 0.023 | [2] 0.004 | [15] -0.163 | pinometostat 0.089 | [11] -0.289

SCRIB isoform 3 (UniProt Q14160)
inactive: erlotinib 0.077 | [14] -0.054 | [12] -0.01 | [7] 0.022 | [8] 0.001 | IRAK-1-4 Inhibitor I -0.316 | ralimetinib 0.107 | [15] -0.162 | [13] 0.025 | pinometostat 0.346 | [11] 0.029

SCGB2A1 (UniProt O75556)
inactive: [5] -0.331 | ibrutinib 0.048 | [10] -0.251

RXRG (UniProt P48443)
inactive: [12] 0.113 | [7] 0.21 | [8] 0.205 | ralimetinib -0.033 | [13] 0.128 | [11] 0.534

SEC24B isoform 3 (UniProt O95487)
inactive: [3] 0.132 | [1] -0.223 | [4] -0.044 | [5] 0.076 | [12] 0.047 | [6] 0.033 | [7] -0.166 | [8] 0.075 | IRAK-1-4 Inhibitor I -0.035 | ibrutinib -0.052 | [9] 0.03 | ralimetinib 0.136 | [2] -0.049 | [13] 0.021 | pinometostat 0.199 | [11] -0.061
